Results are given in words; binding and its absence hold for the method and conditions named. Some entries that bind do so weakly or less than the wild type.
Columns and labels:
[1] = target: MetCODH α2ε2 heterotetramer (Methanosarcina thermophila); experiment: cryo-EM structure; purified native ACDS complex, 4 mg/mL in 25 mM MOPS, 25 mM Na2SO4, pH 7.2; chameleon-plunged, dispense-to-plunge time 150 ms; on-grid dissociation gave CODH tetramer (2.8 Å), CODH/ACS pentamer and hexamer (3.2 Å each); both purified
[2] = target: Methanosarcina thermophila carbon monoxide dehydrogenase (MetCODH) α subunit (Methanosarcina thermophila); experiment: cryo-EM structure; purified native ACDS complex, 1 mg/mL in 25 mM MOPS, 25 mM Na2SO4, pH 7.2, with 0.1% glutaraldehyde; blot-plunged on Cryoplunge 3 (Cp3), anaerobic; on-grid dissociation gave CODH tetramer only (3.3 Å); both purified
[3] = target: Methanosarcina thermophila carbon monoxide dehydrogenase (MetCODH) α subunit (Methanosarcina thermophila); experiment: cryo-EM structure; purified native ACDS complex, 4 mg/mL in 25 mM MOPS, 25 mM Na2SO4, pH 7.2; chameleon-plunged, dispense-to-plunge time 150 ms; on-grid dissociation gave CODH tetramer (2.8 Å), CODH/ACS pentamer and hexamer (3.2 Å each); both purified

Protein sequences, listed by entry. Tags and fused reporters are not part of them.
UniProt A0A0E3NEI1: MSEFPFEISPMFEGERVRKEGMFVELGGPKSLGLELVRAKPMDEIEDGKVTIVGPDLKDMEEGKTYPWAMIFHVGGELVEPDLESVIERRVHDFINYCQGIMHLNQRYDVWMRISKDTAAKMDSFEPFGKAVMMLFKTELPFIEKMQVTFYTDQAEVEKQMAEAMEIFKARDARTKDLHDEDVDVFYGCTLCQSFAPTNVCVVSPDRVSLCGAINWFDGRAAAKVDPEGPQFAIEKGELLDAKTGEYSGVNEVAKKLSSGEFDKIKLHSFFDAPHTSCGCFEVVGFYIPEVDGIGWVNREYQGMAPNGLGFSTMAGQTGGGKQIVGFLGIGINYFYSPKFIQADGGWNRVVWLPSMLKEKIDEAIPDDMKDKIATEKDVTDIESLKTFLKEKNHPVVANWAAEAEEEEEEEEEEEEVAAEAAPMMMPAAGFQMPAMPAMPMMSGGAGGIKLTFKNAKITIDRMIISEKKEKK
UniProt A0A0E3KZD0: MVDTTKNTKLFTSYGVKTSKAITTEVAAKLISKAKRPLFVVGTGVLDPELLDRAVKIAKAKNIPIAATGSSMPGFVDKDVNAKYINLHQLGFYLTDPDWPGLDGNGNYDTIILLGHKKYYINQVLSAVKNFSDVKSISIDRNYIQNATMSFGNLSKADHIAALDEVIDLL

Row | binding [1] | binding [2] | binding [3] | Substance
1 | binds |  |  | Methanosarcina thermophila acetyl-CoA synthase (MetACS) β subunit (from UniProt A0A0E3NEI1 1-472) (enzyme)
2 |  | binds | binds | Methanosarcina thermophila carbon monoxide dehydrogenase (MetCODH) ε subunit (from UniProt A0A0E3KZD0 1-170)
